Literature values in patent publication US9408839B2, “Antipsychotic treatment based on DRD2 or ANKK1 SNP genotype” (Vanda Pharmaceuticals, Inc., priority 2009, dated 2016).
At least one structure is not confirmed: it was looked up by name or label, or the drawing left a doubt.

Tested on: schizophrenic patients
Conditions: rs1799732 SNP; cited from earlier work

Cc1cc2c(s1)Nc1ccccc1N=C2N1CCN(C)CC1 [olanzapine]
time to respond to antipsychotics, -141C Del allele carriers versus -141C Ins allele carriers: significantly longer time to respond
